Assay results from PubChem BioAssay AID493014 (National Center for Advancing Translational Sciences (NCATS), 2011).
The other results are listed elsewhere or left out. These are further read-outs of the screen, such as a control signal, another cell line or another target. No call is given for them. The list favours compounds with an active or inconclusive main result. Words in brackets tell the shape of the fitted curve; partial curves, single points and poor fits give uncertain potencies.

Test: qHTS Assay to Find Inhibitors of Chronic Active B-Cell Receptor Signaling
Conditions: ABC-DLBCL IkBa-CBG/CBR reporter, luminescence ratio (green luciferase fused to IkBa over red control in TMD8 lymphoma cells), 4 h; measured here: CBR red luminescence, cell number
Procedure, shortened: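 Cell line TMD8 (human ABC DLBCL), stably expressing tet-inducible CBG68-IkBa fusion and CBR; IMDM/0.5% FBS; cpd up to 46 uM; dox induction, 4 h, 37C/5% CO2; dual luminescence; green/red ratio; MG132 control.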

Compound | AC50
CC(=O)Nc1ccc(NC(=O)C2CCCN2/C=C/C(=O)C(F)(F)F)cc1 (centres undefined) | 5.62 µM [falling, single point]
COCCNC(=O)c1cc2c(=O)n3cccc(C)c3nc2n1C | 11.6 µM [rising, partial curve, poor fit]
Nc1nc(N2CCN(C/C=C/c3ccccc3)CC2)nc2ccccc12 | 14.6 µM [rising, partial curve, poor fit]
CC(=O)Nc1cccc(C(=O)/C=C/c2ccc(C)cc2)c1 | 18.4 µM [falling, single point]
CCC(=O)NCCc1nc2ccccc2[nH]1 | 29.1 µM [falling, single point]
Cc1ccc(C=Nc2ccccc2C(N)=O)s1 | 29.1 µM [rising, single point]
CCCCOC(=O)c1ccc(NC(=S)NC(=O)c2c(Br)c(C)nn2C)cc1 | 0.326 µM [falling, full curve]
C=CCN(CC=C)CCOc1cccc2ccccc12 | 16.4 µM [rising, single point]
O=C(CCc1ccccc1)NNC(=O)c1cccc(F)c1 | 35.5 µM [falling, single point]
Cc1cc(NC(=O)CSc2nnc(-c3c[nH]c4ccccc34)n2-c2ccc(Cl)cc2)no1 | 23.1 µM [rising, single point]
O=C(COC(=O)Cc1ccc(S(=O)(=O)N2CCCCC2)s1)Nc1ccc2c(c1)OCO2 | 17.8 µM [rising, partial curve, poor fit]
CC1=C(C/C=C(\C)CCCC(C)CCCC(C)CCCC(C)C)C(=O)c2ccccc2C1=O (centres undefined) | 20.6 µM [falling, single point]
Cc1cccc(NC(=S)NC(=O)c2ccc(Br)o2)c1 | 17.8 µM [falling, partial curve, poor fit]
COc1ccc(N(CC(=O)NCC(C)C)S(=O)(=O)c2ccccc2)cc1 | 0.794 µM [rising, full curve]
COc1cc(/C=C(/C#N)c2nc3ccccc3c(=O)[nH]2)ccc1O | 20.6 µM [falling, single point]
Cc1ccc2nc(NCc3ccccc3)c(C#N)cc2c1 | 1.58 µM [rising, full curve, poor fit]
O=C(CSc1nc2ccccc2o1)Nc1nc(-c2ccccc2)cs1 | 23.1 µM [falling, partial curve, poor fit]
O=C(N/N=C/c1c(O)ccc2ccccc12)c1[nH]ncc1Br | 18.4 µM [falling, partial curve]
CC(=O)Nc1ccc(NC(=O)CNC(=O)COc2ccccc2)cc1 | 14.1 µM [rising, partial curve]

Structures from the list above containing a cyano group:
Compound | AC50
COc1cc(/C=C(/C#N)c2nc3ccccc3c(=O)[nH]2)ccc1O | 20.6 µM [falling, single point]
Cc1ccc2nc(NCc3ccccc3)c(C#N)cc2c1 | 1.58 µM [rising, full curve, poor fit]
